From US20220389013A1, “PYRIDOPYRIMIDINONE COMPOUNDS AND APPLICATIONS THEREOF” (BeBetter Med Inc., priority 2020, published 2022)
Some results were stated once for a whole list of compounds, not compound by compound. Some compounds share one range, which may span the group rather than tell each member.

tested on: Caco-2 cell; experiment: Caco-2 cell transmembrane transport experiment; conditions: 10 μM, pH 7.4, 37° C., 90 min

| Compound | efflux rate Papp(B-A)/Papp(A-B) |
| --- | --- |
| C=CC(=O)N1C[C@H](C)N(c2nc(=O)n(-c3c(C)ccnc3C(C)C)c3nc(-c4c(F)c(F)cc5ccoc45)c(Cl)cc23)C[C@H]1C (single isomer, unassigned) [Compound 104-1] | 1-2 |
| C=CC(=O)N1CCN(c2nc(=O)n(-c3c(C)ccnc3C(C)C)c3nc(-c4c(F)ccc5ccoc45)c(F)cc23)[C@@H](C)C1 (single isomer, unassigned) [Compound 70-1] | 1-2 |
| C=CC(=O)N1C[C@H](C)N(c2nc(=O)n(-c3c(C)ccnc3C(C)C)c3nc(-c4c(F)ccc5ccoc45)c(Cl)cc23)C[C@H]1C (single isomer, unassigned) [Compound 90-1] | 1-2 |
| C=CC(=O)N1CCN(c2nc(=O)n(-c3c(C)ccnc3C(C)C)c3nc(-c4c(F)c(F)cc5ccoc45)c(Cl)cc23)[C@@H](C)C1 (single isomer, unassigned) [Compound 103-1] | 1-2 |
| C=CC(=O)N1CCN(c2nc(=O)n(-c3c(C)ccnc3C(C)C)c3nc(-c4c(F)ccc5ccoc45)c(Cl)cc23)[C@@H](C)C1 (single isomer, unassigned) [Compound 73-1] | 1-2 |
